Reference: PubChem BioAssay AID2685 (National Center for Advancing Translational Sciences (NCATS), 2010)
This is one part of the list. Shown are side measurements of this screen, not its main read-out; they come without a call. Most of these compounds were active or inconclusive in the main read-out, so they are no random draw. Words in brackets tell the shape of the fitted curve; partial curves, single points and poor fits give uncertain potencies.

Assay: qHTS Assay for Lipid Storage Modulators in Drosophila S3 Cells;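 as to cell number change: cells counted by Cell Tracker Red CMTPX staining in the red channel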
Conditions: BODIPY lipid droplet fluorescence, 18-24 h; for cell number change: measured here: cell count max response, cells fed with added oleic acid
Outline: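 Laser-scanning cytometry quantifies lipid droplet accumulation (500–530 nm total intensity; droplet/cell object ratio) in oleic acid-fed (400 uM added) Drosophila S3 cells treated with a concentration series. 20 uM Triacsin C defined 100% inhibition.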

[1] = measured here: lipid fluorescence (Fed channel) AC50, cells fed with added oleic acid
[2] = measured here: cell number channel AC50, cells fed with added oleic acid

SMILES	AC50 [1]	cell number change [%]	AC50 [2]
COc1cc(NS(=O)(=O)c2ccc(NC(=S)NC(=O)c3ccc(F)c(F)c3)cc2)nc(OC)n1	6.51 µM [rising, partial curve]	–	–
CCOC(=O)C1CN(S(=O)(=O)c2ccc(C)cc2)C1	1.3 µM [falling, full curve]	-32.4	1.3 µM [falling, full curve]
O=C(Oc1ccccc1Cl)C1CCN(C(=O)c2ccc(F)cc2)CC1	6.51 µM [falling, partial curve, poor fit]	-99.4	29.1 µM [falling, single point]
COc1ccccc1OCC(=O)N1CCN(C(=O)c2ccco2)CC1	1.84 µM [rising, partial curve]	-1.16	–
CCN(CC)CCCCNc1ncc2cc(-c3cc(OC)cc(OC)c3)c(NC(=O)NC(C)(C)C)nc2n1	0.00461 µM [falling, full curve, poor fit]	-25.9	–
CC(C)NC(=O)c1cc(-n2cnnc2)ccc1Cl	20.6 µM [falling, partial curve]	–	–
CSCCC(NC(=O)COc1ccccc1)C(=O)NC1CCC(C)CC1 (stereo not drawn)	–	38.6	29.1 µM [rising, single point]
O=C(Nc1cccc(Cl)c1Cl)C1CC(=O)N(c2ccc(Br)cc2)C1 (stereo not drawn)	20.6 µM [falling, single point]	-52.1	29.1 µM [falling, single point]
CCC(=O)c1ccc(N2CCN(C(=O)c3ccccc3Br)CC2)c(F)c1	0.731 µM [falling, partial curve]	–	2.06 µM [falling, partial curve]
CC1CCCCN1C(=S)NC(=O)c1ccccc1 (stereo not drawn)	–	6.65	–
CCOc1ccc(Cl)cc1S(=O)(=O)NC1CCCC1	11.6 µM [falling, partial curve]	-5.66	–
CCC(=O)N1CCc2cc(S(=O)(=O)N(C)c3ccc(Br)cc3)ccc21	0.651 µM [rising, partial curve, poor fit]	-9.72	–
Cc1c(C)n(CCCN(C)C)c2ncnc(NC3CCCCC3)c12	6.51 µM [rising, single point]	18.3	–
O=C(C1CCN(S(=O)(=O)c2cccc3cccnc23)CC1)N1CCCCC1	6.51 µM [falling, single point]	29.4	–
Cc1cccnc1NC(=O)CNC(=O)c1cccs1	5.8 µM [falling, partial curve]	-6.15	–
CN(c1ccccc1)c1nc(N)c([N+](=O)[O-])c(NCc2ccco2)n1	18.4 µM [rising, single point]	27.8	–
O=C(Nc1cccc(S(=O)(=O)N2CCCCC2)c1)c1ccc2ncsc2c1	1.16 µM [rising, full curve]	22.5	1.84 µM [rising, partial curve]
Cc1ccc(S(=O)(=O)NC2=NCN(C)CN2)cc1[N+](=O)[O-]	29.1 µM [rising, single point]	–	–
CCOc1cc(/C=N/NC(=O)COc2ccc(Cl)cc2)ccc1OS(=O)(=O)c1ccccc1	–	-77.1	16.4 µM [falling, partial curve]

SMILES	AC50 [1]	cell number change [%]	AC50 [2]
CCSC1=C(C#N)C(=O)n2c1cc1c2CCCC1	–	-25.3	0.116 µM [falling, full curve, poor fit]
[O-]/[N+](=C/c1ccco1)c1ccccc1	20.6 µM [rising, partial curve]	2.47	–
Cc1c2ccccc2c(C)c2c1ccc1ccccc12	2.06 µM [rising, full curve]	39.5	0.411 µM [rising, full curve]
CC(=O)C12OC1CC1C3CCC4=CC(=O)CCC4(C)C3CCC12C (stereo not drawn)	0.259 µM [rising, full curve, poor fit]	25.4	–
COc1ccc(-n2c(SCC(=O)c3ccc[nH]3)nnc2-c2ccccc2)cc1	5.17 µM [rising, single point]	23.9	–
CCCCC1CCC(C(=O)N(C)CC(=O)Nc2cccc(F)c2)CC1 (stereo not drawn)	0.82 µM [falling, partial curve, poor fit]	–	–
CC(=O)Cc1nsc(NC(=O)c2cn(-c3ccccc3)nc2-c2ccc(Br)cc2)n1	0.82 µM [rising, partial curve, poor fit]	-5.47	–
CC(C)C[C@H](NC(=O)OC(C)(C)C)C(=O)NCC1CCC(C(=O)N[C@@H](Cc2ccccc2)C(=O)O)CC1 (stereo partly drawn)	29.1 µM [rising, single point]	6.94	–
O=C(O)CCC(=O)N(Cc1cccs1)Cc1cccs1	1.3 µM [falling, full curve]	-26.9	0.231 µM [falling, full curve]
CC(C)(C)c1ccc(S(=O)(=O)N2CCN(Cc3cc4c(cc3O)OCO4)CC2)cc1	6.51 µM [rising, single point]	-35.8	29.1 µM [falling, single point]
CC1CCN(CC(C)CNC(=O)c2cc(-c3ccccn3)nc3ccccc23)CC1 (stereo not drawn)	20.6 µM [rising, single point]	19.4	–
COc1ccc(-c2nn(-c3ccccc3C)cc2CNC(C)c2cn(C)nc2C)cc1F (stereo not drawn)	–	7.75	–
CCc1ccccc1N(CC(=O)N1CCCC1)S(C)(=O)=O	0.0326 µM [falling, full curve, poor fit]	-4.72	–
O=C(C[n+]1cc(Br)cc2ccccc21)c1ccc(Br)cc1	29.1 µM [falling, single point]	-47.3	–
CC1CC(=O)C2=C(C1)OC(N)=C(C#N)C2c1coc2ccccc2c1=O (stereo not drawn)	–	–	2.91 µM [rising, partial curve]
CCOc1cc(Br)c(CN2C(=O)NC3(CCCCCC3)C2=O)cc1OCC	0.13 µM [rising, partial curve]	–	–
O=C(O)c1ccccc1-c1ccccc1C(=O)NCc1ccco1	23.1 µM [falling, partial curve]	-21.8	–
CCNS(=O)(=O)c1ccc(CCC(=O)N2CCN(Cc3ccccc3)CC2)cc1	0.731 µM [rising, single point]	-16.8	–

An excerpt of these results, in markdown:

| SMILES | AC50 [1] | cell number change [%] | AC50 [2] |
| --- | --- | --- | --- |
| CC(=O)C12OC1CC1C3CCC4=CC(=O)CCC4(C)C3CCC12C (stereo not drawn) | 0.259 µM [rising, full curve, poor fit] | 25.4 | – |
| CC(=O)Cc1nsc(NC(=O)c2cn(-c3ccccc3)nc2-c2ccc(Br)cc2)n1 | 0.82 µM [rising, partial curve, poor fit] | -5.47 | – |
| CCc1ccccc1N(CC(=O)N1CCCC1)S(C)(=O)=O | 0.0326 µM [falling, full curve, poor fit] | -4.72 | – |
